The list shows a part of the results. The source does not settle which construct or isoform was used.

This experiment deals with T1, ETV4 (UniProt P43268).
T1 sequence: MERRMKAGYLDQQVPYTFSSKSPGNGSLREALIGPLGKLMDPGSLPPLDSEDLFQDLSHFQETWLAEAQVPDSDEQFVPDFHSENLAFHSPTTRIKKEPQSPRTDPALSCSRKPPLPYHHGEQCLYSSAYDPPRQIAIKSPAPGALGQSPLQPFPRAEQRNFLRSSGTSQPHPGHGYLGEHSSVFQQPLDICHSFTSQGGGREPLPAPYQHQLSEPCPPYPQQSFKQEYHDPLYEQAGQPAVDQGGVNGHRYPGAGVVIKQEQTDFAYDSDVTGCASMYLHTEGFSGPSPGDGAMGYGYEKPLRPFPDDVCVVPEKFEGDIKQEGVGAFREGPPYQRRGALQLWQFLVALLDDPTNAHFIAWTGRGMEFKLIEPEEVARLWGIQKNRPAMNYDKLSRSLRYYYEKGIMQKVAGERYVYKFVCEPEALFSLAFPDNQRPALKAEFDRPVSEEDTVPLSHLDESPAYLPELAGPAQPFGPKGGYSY
Kind of experiment: DAPPL (digital affinity profiling via proximity ligation, sequencing). To be noted: 10 mM Tris-HCl pH 7.5, 50 mM NaCl, 1 mM DTT, 4% glycerol, room temperature, 30 min; GST-TFs on glutathione beads, 16-mer random dsDNA library, 0.1% …; high values mean tight binding; double strand, one strand shown; scale: fold enrichment (6-mer frequency, TF over GST control).
Sequence TCTTTT displayed a binding signal of 1.44.
For CATTCG, the binding signal is 1.24.
Consider CTTCCA, for which the binding signal is 1.5.
TCTGTA: the binding signal turned out to be 1.15.
TTATCG had a binding signal of 1.17.
In the case of AACTCC, the binding signal stood at 1.3.
Sequence AAGCAT displayed a binding signal of 1.11.
CTGTCC came in with a binding signal of 1.27.
The sequence GTTATT came in with a binding signal of 1.11.
CCACTG showed a binding signal of 1.27.
Next, ATATAT: 1.45.
The sequence GGAACT showed a binding signal of 1.8.
The sequence TGTCTT registered a binding signal of 1.3.
TCCCCC had a binding signal of 1.55.
TAAATC returned a binding signal of 1.15.
Next, TAACGG: 1.11.
As for ATACAC, the binding signal was determined as 1.32.
CCTTCG showed a binding signal of 1.36.
In the case of CGACAA, the binding signal turned out to be 1.17.
In the case of CTCAGT, the binding signal was determined as 1.23.
In turn, AATGTA showed a binding signal of 1.13.
The sequence ACGACG returned a binding signal of 1.19.
With CTAGCG the figure was 1.19; with AATATG, 1.12.
With TTATCC the figure was 1.49.
In turn, TCGCCC registered a binding signal of 1.36.
Take ATGGTC: the binding signal came out at 1.55.
In turn, CTGACC had a binding signal of 1.43.
With CAATGC, the binding signal is 1.22.
With AATTTC the figure was 1.75.
Next, CATCCT: 1.61.
CGTTTA yielded a binding signal of 0.988.
In turn, AAGTTA had a binding signal of 1.21.
In turn, CTCTTA registered a binding signal of 1.44.
With TTAGGT the figure was 1.08; with TTATCT, 1.29; with TACGCA, 1.26.
With CTGACA, the binding signal amounted to 1.31.
In the case of CCCCTG, the binding signal amounted to 1.26.
The sequence AGTATT gave a binding signal of 1.15.
